# Data from doi:10.1101/2023.01.19.524697.
# Amino acid sequences for entries named in this document (tags omitted).
# UniProt Q39057: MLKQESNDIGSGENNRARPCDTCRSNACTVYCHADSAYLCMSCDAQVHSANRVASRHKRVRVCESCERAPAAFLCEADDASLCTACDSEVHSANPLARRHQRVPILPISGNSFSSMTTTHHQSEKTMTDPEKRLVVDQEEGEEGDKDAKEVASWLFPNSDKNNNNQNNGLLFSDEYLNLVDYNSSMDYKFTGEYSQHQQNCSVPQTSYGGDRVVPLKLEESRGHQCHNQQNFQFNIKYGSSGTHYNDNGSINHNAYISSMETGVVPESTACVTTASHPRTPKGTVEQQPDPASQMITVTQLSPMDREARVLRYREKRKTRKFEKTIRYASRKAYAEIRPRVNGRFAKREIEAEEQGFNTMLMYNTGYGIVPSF
# These are yes or no findings as the source states them, for the method shown. In cells and extracts the contact can be indirect. Some binding calls cover weakened binding; strength is not graded here. Sequences can lack the tags named with a protein.
# Assays:
# [1] = molecular target: T1, YFN:HY5/YFC:PRR5 (HY5 and PRR5 with reconstituted YFP) (Arabidopsis thaliana) (UniProt O24646+Q6LA42); assay: FRET or BRET
# T1 sequence 1: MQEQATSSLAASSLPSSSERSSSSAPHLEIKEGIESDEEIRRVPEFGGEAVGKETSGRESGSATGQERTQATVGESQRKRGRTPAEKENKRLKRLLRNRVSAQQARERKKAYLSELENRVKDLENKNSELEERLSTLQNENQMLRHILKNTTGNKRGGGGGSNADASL
# T1 sequence 2: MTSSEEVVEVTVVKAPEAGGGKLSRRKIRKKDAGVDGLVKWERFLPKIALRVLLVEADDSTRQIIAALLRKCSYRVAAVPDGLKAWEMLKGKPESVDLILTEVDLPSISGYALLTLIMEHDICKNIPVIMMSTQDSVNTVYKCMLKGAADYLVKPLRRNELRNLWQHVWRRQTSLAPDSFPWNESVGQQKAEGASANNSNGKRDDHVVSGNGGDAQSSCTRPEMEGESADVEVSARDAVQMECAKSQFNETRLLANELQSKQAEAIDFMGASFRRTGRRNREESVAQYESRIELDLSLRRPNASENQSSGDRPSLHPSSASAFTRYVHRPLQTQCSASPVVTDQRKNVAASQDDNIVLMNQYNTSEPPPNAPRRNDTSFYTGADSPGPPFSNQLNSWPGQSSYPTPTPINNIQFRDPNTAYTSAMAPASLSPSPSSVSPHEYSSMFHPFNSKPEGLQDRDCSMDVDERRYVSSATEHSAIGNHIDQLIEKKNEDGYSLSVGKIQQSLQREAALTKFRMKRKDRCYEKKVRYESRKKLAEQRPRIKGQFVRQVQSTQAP
# [2] = molecular target: T2, LONG HYPOCOTYL 5 (HY5), split-YFP fusion for BiFC (Arabidopsis thaliana) (UniProt O24646); assay: split reporter
# T2 sequence: T1 sequence 1
# [3] = molecular target: T3, PSEUDO RESPONSE REGULATOR 5 (PRR5), split-YFP fusion for BiFC (Arabidopsis thaliana) (UniProt Q6LA42); assay: split reporter
# T3 sequence: T1 sequence 2
binding [1],binding [2],binding [3],Substance
binds,–,–,CO:CFP (from UniProt Q39057 1-373)
–,binds,binds,"CONSTANS (CO), split-YFP fusion for BiFC (from UniProt Q39057 1-373)"
